Taken from: PubChem BioAssay AID1224830 (NIAID, 2016)
Here is one part, drawn at random, of about 18,000 deposited reagents. Of all reagents, about 2,900 (16%) were called active. 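Calls are made per well; low scores hint the gene aids the LPS response, high scores that it dampens it.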 Repeated entries: four replicate wells of each siRNA pool. Reagent sequences are not shown.

Screen: 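Host factors that control LPS-induced TNF expression in human macrophages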 (primary screen)
Cells: human THP-1 monocytic leukaemia cells, TNF dual-luciferase reporter clone, PMA-differentiated to macrophage-like cells
Reagent: siRNA pool against human genes, 50 nM
Timing: LPS for 4 h, given about 3 days after siRNA transfection
Challenge: bacterial LPS (TLR4 ligand), 10 ng/ml
Measured: 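TNF firefly reporter luminescence divided by renilla, normalised to the plate median, then turned into a robust z-score for each replicate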
Scale: TNF reporter robust z-score: higher = stronger TNF reporter response to LPS
Call rule: 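a well is active when its z-score exceeds 2.8 or falls below -1.5; control wells carry no call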

HBQ1 (hemoglobin subunit theta 1): TNF reporter robust z-score = -0.87; Outcome = inactive
HBQ1 (hemoglobin subunit theta 1): TNF reporter robust z-score = -0.51; Outcome = inactive
HBQ1 (hemoglobin subunit theta 1): TNF reporter robust z-score = -0.55; Outcome = inactive
HBQ1 (hemoglobin subunit theta 1): TNF reporter robust z-score = -0.91; Outcome = inactive
NXPE1 (neurexophilin and PC-esterase domain family member 1): TNF reporter robust z-score = 0.43; Outcome = inactive
NXPE1 (neurexophilin and PC-esterase domain family member 1): TNF reporter robust z-score = 0.71; Outcome = inactive
NXPE1 (neurexophilin and PC-esterase domain family member 1): TNF reporter robust z-score = -0.1; Outcome = inactive
NXPE1 (neurexophilin and PC-esterase domain family member 1): TNF reporter robust z-score = 0.76; Outcome = inactive
PAQR5 (progestin and adipoQ receptor family member 5): TNF reporter robust z-score = -0.81; Outcome = inactive
PAQR5 (progestin and adipoQ receptor family member 5): TNF reporter robust z-score = -0.22; Outcome = inactive
PAQR5 (progestin and adipoQ receptor family member 5): TNF reporter robust z-score = 0.03; Outcome = inactive
PAQR5 (progestin and adipoQ receptor family member 5): TNF reporter robust z-score = -0.56; Outcome = inactive
USP50 (ubiquitin specific peptidase 50): TNF reporter robust z-score = -0.23; Outcome = inactive
USP50 (ubiquitin specific peptidase 50): TNF reporter robust z-score = -0.52; Outcome = inactive
USP50 (ubiquitin specific peptidase 50): TNF reporter robust z-score = 0.93; Outcome = inactive
USP50 (ubiquitin specific peptidase 50): TNF reporter robust z-score = 0.79; Outcome = inactive
BBOF1 (basal body orientation factor 1): TNF reporter robust z-score = -0.16; Outcome = inactive
BBOF1 (basal body orientation factor 1): TNF reporter robust z-score = -1.14; Outcome = inactive
BBOF1 (basal body orientation factor 1): TNF reporter robust z-score = -0.94; Outcome = inactive
BBOF1 (basal body orientation factor 1): TNF reporter robust z-score = 0.19; Outcome = inactive
DYNC1LI1 (dynein cytoplasmic 1 light intermediate chain 1): TNF reporter robust z-score = -0.65; Outcome = inactive
DYNC1LI1 (dynein cytoplasmic 1 light intermediate chain 1): TNF reporter robust z-score = -0.17; Outcome = inactive
DYNC1LI1 (dynein cytoplasmic 1 light intermediate chain 1): TNF reporter robust z-score = -0.69; Outcome = inactive
DYNC1LI1 (dynein cytoplasmic 1 light intermediate chain 1): TNF reporter robust z-score = 0.42; Outcome = inactive

The list goes on.
SPINK13 (serine peptidase inhibitor Kazal type 13): TNF reporter robust z-score = 0.16; Outcome = inactive
SPINK13 (serine peptidase inhibitor Kazal type 13): TNF reporter robust z-score = -0.32; Outcome = inactive
SPINK13 (serine peptidase inhibitor Kazal type 13): TNF reporter robust z-score = 1.32; Outcome = inactive
SPINK13 (serine peptidase inhibitor Kazal type 13): TNF reporter robust z-score = 0.92; Outcome = inactive
CRLF1 (cytokine receptor like factor 1): TNF reporter robust z-score = 0.32; Outcome = inactive
CRLF1 (cytokine receptor like factor 1): TNF reporter robust z-score = 1.9; Outcome = inactive
CRLF1 (cytokine receptor like factor 1): TNF reporter robust z-score = 0.23; Outcome = inactive
CRLF1 (cytokine receptor like factor 1): TNF reporter robust z-score = 2.7; Outcome = inactive
TPPP (tubulin polymerization promoting protein): TNF reporter robust z-score = 0.4; Outcome = inactive
TPPP (tubulin polymerization promoting protein): TNF reporter robust z-score = -0.84; Outcome = inactive
TPPP (tubulin polymerization promoting protein): TNF reporter robust z-score = -0.55; Outcome = inactive
TPPP (tubulin polymerization promoting protein): TNF reporter robust z-score = -0.44; Outcome = inactive
ZNF583 (zinc finger protein 583): TNF reporter robust z-score = -0.38; Outcome = inactive
ZNF583 (zinc finger protein 583): TNF reporter robust z-score = -0.57; Outcome = inactive
ZNF583 (zinc finger protein 583): TNF reporter robust z-score = 0; Outcome = inactive
ZNF583 (zinc finger protein 583): TNF reporter robust z-score = -0.59; Outcome = inactive
UTF1 (undifferentiated embryonic cell transcription factor 1): TNF reporter robust z-score = 0.61; Outcome = inactive
UTF1 (undifferentiated embryonic cell transcription factor 1): TNF reporter robust z-score = 1; Outcome = inactive
UTF1 (undifferentiated embryonic cell transcription factor 1): TNF reporter robust z-score = 2.74; Outcome = inactive
UTF1 (undifferentiated embryonic cell transcription factor 1): TNF reporter robust z-score = 0.52; Outcome = inactive
RFX7 (regulatory factor X7): TNF reporter robust z-score = 0.89; Outcome = inactive
RFX7 (regulatory factor X7): TNF reporter robust z-score = -0.58; Outcome = inactive
RFX7 (regulatory factor X7): TNF reporter robust z-score = 0.11; Outcome = inactive
RFX7 (regulatory factor X7): TNF reporter robust z-score = -0.11; Outcome = inactive
MVB12B (multivesicular body subunit 12B): TNF reporter robust z-score = -0.82; Outcome = inactive
MVB12B (multivesicular body subunit 12B): TNF reporter robust z-score = -1.25; Outcome = inactive
MVB12B (multivesicular body subunit 12B): TNF reporter robust z-score = -1.03; Outcome = inactive
MVB12B (multivesicular body subunit 12B): TNF reporter robust z-score = -1.17; Outcome = inactive
TFPT (TCF3 fusion partner): TNF reporter robust z-score = 2.09; Outcome = inactive
TFPT (TCF3 fusion partner): TNF reporter robust z-score = -0.24; Outcome = inactive
TFPT (TCF3 fusion partner): TNF reporter robust z-score = -0.69; Outcome = inactive
TFPT (TCF3 fusion partner): TNF reporter robust z-score = -0.4; Outcome = inactive
TMEM176B (transmembrane protein 176B): TNF reporter robust z-score = -1.74; Outcome = active
TMEM176B (transmembrane protein 176B): TNF reporter robust z-score = -1.69; Outcome = active
TMEM176B (transmembrane protein 176B): TNF reporter robust z-score = -1.47; Outcome = inactive
TMEM176B (transmembrane protein 176B): TNF reporter robust z-score = -1.29; Outcome = inactive
